According to US20240067748A1:
No constants are given. Whether binding was seen depends on the method and setting. Some results given as binding are weak or reduced against the parent protein; the word gives no strength.

How the values were obtained:
[1] = target: monkey Trop2 on CHO-K1 cells (monkey); assay: flow cytometry on CHO-K1/monkey Trop2 cells
[2] = target: monkey Trop2 protein (Sino Biological, #90893-C08H) (monkey); assay: BLI, Octet RED96, AHC sensor
[3] = target: monkey Trop2 protein (Sino Biological, #90893-C08H) (monkey); assay: SPR, Biacore T200, antigen immobilised on CM5 chip

Binder | binding [1] | binding [2] | binding [3]
PR001128 (antibody, human IgG1, kappa, V domains shown) VH: QVQLQESGPGLVKPSGTLSLTCAVSGGSISSSNWWSWVRQPPGKGLEWIGEIFHSGTTYYNPSLKSRVTILVDKSKNQFSLKLSSVTAADTAVYYCARDNTKSWDHFDHWGQGTLVTVSS VL: EIVLTQSPATLSLSPGERATLSCRASQSVGSYLAWYQQKPGQAPSLLIYDASNRATGIPARFSGSGSGTDFTLTISSLEPEDFAVYYCQQRTNWYTFGQGTKLEIKR | binds | binds | 
PR001130 (antibody, human IgG1, kappa, V domains shown) VH: QVQLQESGPGLVKPSGTLSLTCAVSGDSISSHNWWSWVRQPPGKGLEWIGEIYHSGITSYNPSLKSRVTISVDKSKNQFSLKLNSVTAADTAMYYCARGSGVISYFDYWGQGTLVTVSS VL: DIQMTQSPSTLSASVGDRVTITCRASQSIGNWLAWYQQKPGKAPKLLIYKASSLESGVPSRFSGSGSGTEFTLTISSLQPDDFATYYCQQYDSYSPITFGQGTRLEIKR | binds | binds | 
PR001166 (antibody, human IgG1, kappa, V domains shown) VH: QVQLQESGPGLVKPSETLSLTCAVSGYSISSGYFWAWIRQPPGKGLEWIGSIYHSGRTHYNPSLKSRVIISLDTSKNQFSLKLRSVTAADSAVYYCAREGYASGSYYWGQGTLVTVSS VL: EIVMTQSPATLSVSPGERATLSCRSSQSVNNYLAWFQQKPGQAPRLLIYDSSTRATGIPARFSGSGSGTEFTLTISSLQSEDFAFYFCQQYENWPLTFGGGTKVEIKR | binds | binds | binds
PR001170 (antibody, human IgG1, kappa, V domains shown) VH: QVQLQESGPGLVKPSETLSLTCAVSGYSINSGYFWAWIRQPPGMGLEWIGSIYHSGRTHYNPSLKSRVIISLDTSKNQFSLKLRSVTAADSAVYYCAREGYASGSYYWGQGTLVTVSS VL: EIVMTQSPATLSVSPGERATLSCRSSQSVNSYLAWFQQKPGQAPRLLIYDSSTRATGIPARFSGSGSGTEFTLTISSLQSEDFAFYFCQQYENWPLTFGGGTKVEIKR |  | binds | 
PR001132 (antibody, human IgG1, kappa, V domains shown) VH: QVELVESGGGVVQPGRSLRLSCGASGFTFSSYNMYWVRQAPGKGLEWVAGIWDDGNNKYYANSVKGRFTISRDNSKNTLYLQMNSLRTEDTALYYCAKDGWGSYGEYFQHWGQGTLVTVSS VL: DIQMTQSPSSLSASVGERVTITCRASQNINSYLSWYQQKPGKAPKLLIYAASSLQNGVPSRFSGSGSGTDFTLTISSLQPEDFATYYCQQSFSTPPITFGQGTRLEIKR |  | binds | 
PR001138 (antibody, human IgG1, kappa, V domains shown) VH: QVQLQESGPRLVKPSETLSLTCAVSGYSISSGYYWGWIRQSPGMGLEWIAYIYHDGSTYCNPSLKSRVTMSVDTSKNQFSLKLRSVTAADTAVYYCARDGAAAPFDYWGQGTLVTVSS VL: DIQMTQSPSTLSASVGDRVTITCRASQSISNWLAWYQQKPGKAPKVLIYKASSLESGVPSRFSGSGSGTEFTLTINSLQPDDFATYYCQQYDSYSITFGQGTRLEIKR |  | binds | 
PR001150 (antibody, human IgG1, kappa, V domains shown) VH: QVQLVESGGGVVQPEKSLRLSCAASGFTFSHYGMHWVRQVPGKGLEWVAVIWYDGIKRYYVESVKGRFTISRDNSKNTLYLQMNRLRAEDTAVYYCARDGGFGESNYYGLDVWGQGTTVTVSS VL: DIQLTQSPSFLSASVGDRVTITCRASQGINSYLGWYQRKPGKAPKLLIYIASTLQSGVPSRFSGSGSGTEFTLTISSLQPEDFATYYCQQLNSYPYTFGQGTKLEIKR |  | binds | 
PR001159 (antibody, human IgG1, kappa, V domains shown) VH: QVQLVESGGGVVQPGRSLRLSCEASGFTFSHYGMHWVRQAPGKGLEWVAVIWYDGIKTNYVESVKGRFTISRDNSKNTLNLQMNRLRAEDTAVYYCARDGGFGESNYYGLDVWGQGTTVTVSS VL: DIQLTQSPSFLSASVGDRVTITCRASQGISSYLGWYQQKPGKAPKLLIYIASTLQSGVPSRFSGSGSGTEFTLTISSLQPEDFATYYCQQLNSYPYTFGQGTKLEIKR |  | binds | 
PR001153 (antibody, human IgG1, kappa, V domains shown) VH: QVQLQESGPGLVKPSGTLSLTCAVSGGSISSSNWWSWVRQPPGKGLEWIGEIYHDGSTDYNPSLKSRVIISVDKSKNQFSLKVRSVTAADTAVYYCARDNWGFDYWGQGTLVTVSS VL: EIVLTQFPGTLSLSPGERATLSCRSSQSVSSSYLAWYQQKPGQAPRLLISGASSRATGIPDRFSGSGSGTDFTLTISRLEPEDFAVYYCQQYGSSPRTFGQGTKVEIKR |  | binds | 
PR001165 (antibody, human IgG1, kappa, V domains shown) VH: QVQLVESGGGVVQPGRSLRLSCEASGFTFSHYGMHWVRQAPGKGLEWVAVIWYDGIKTYYVESVKGRFTISRDNSKNTLNLQMNRLRAEDTAVYYCARDGGFGESNYYGLDVWGQGTTVTVSS VL: DIQLTQSPSFLSASVGDRVTITCRASQGISSYLGWYQQKPGKAPKLLIYIASTLQSGVPSRFSGSGSGTEFTLTISSLQPEDFATYYCQQLNSYPYTFGQGTKLEIKR | binds | binds | binds
PR001133 (antibody, human IgG1, kappa, V domains shown) VH: QVNLVESGGGVVQPGRSLKLSCAASGFTFSSYGMHWVRQAPGKGLEWVALIWSDGTNRYYTESVKGRFTISRDNSKNTLSLQMKSLRAEDTAVYYCAKDGWGTYGEYFQHWGQGTLVTVSS VL: DIQMTQSPSSLSASVGDRVTITCRASQNINSYLHWYQQKPGKAPKLLIYAASSLQSGVPSRFSGSGSGTDFTLTISSLQPEDFAIYYCQQSYSIPPITFGQGTRLEIKR | binds |  | 
PR001142 (antibody, human IgG1, kappa, V domains shown) VH: QVQLQESGPGLVKPSGTLSLTCAVSGDSISSNNWWSWVRQPPGKGLEWIGEIYPGGNPNYNPSLKSRVTISVDKSKNQFSLKLNSVTAADTAVYYCARGSGVISYFDYWGQGTLVTVSS VL: DIQMTQSPSTLSASVGDRVTITCRASQSIGHWLAWYQQKPGKAPKLLIYKASSLESGVPSRFRGSGSGTEFTLTISSLQPDDFATYYCQQYSSYSPITFGQGSRLEIKR | binds |  | binds
